Taken from: PubChem BioAssay AID652243 (Drosophila RNAi Screening Center, 2013)
The screen tested about 24,000 reagents; shown is a random part of those with a known target gene and a result. Over the whole deposit, 246 (1%) are marked active. 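Plates not normalised; calls are printed but the firefly/Renilla ratio behind them is not deposited; fold cut for lowering reported inconsistently.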 Raw values are not corrected between plates. Not given: the amount of reagent.

Screen: 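Fly regulators of androgen-dependent reporter output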 (primary screen)
Cell system: Drosophila S2R+ cells
Reagent: long dsRNA against Drosophila genes
Timing: 72 h (48 h, then 24 h hormone)
Challenge: synthetic androgen R1881 at 10 nM for 24 h
Read-out: 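Firefly light from an androgen-responsive reporter and Renilla control light per well, raw and unnormalised, for each of two replicates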
Reading the numbers: firefly reporter light: higher = more light from androgen-responsive reporter; Renilla control light: higher = more constitutive control signal (cell number, transfection)
Active means: 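Hit when the log firefly-to-Renilla ratio dropped or increased by a fixed fold versus the mean of GFP or LacZ controls across duplicate plates; lowering cut given as 1.5 and as 3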
Calls: active = hit: reporter lowered or raised; inactive = no hit

gene,DRSC id,"firefly reporter light, replicate 1","firefly reporter light, replicate 2","Renilla control light, replicate 1","Renilla control light, replicate 2",Outcome
PolE4 (DNA polymerase epsilon subunit 4),DRSC04105,2.09e5,2.27e5,1.76e6,1.72e6,inactive
Tim17b1,DRSC12179,33106,45851,1.34e6,9.29e5,inactive
CG14696,DRSC14919,1.21e5,1.42e5,1.73e6,1.72e6,inactive
CG7656,DRSC10900,9247,36833,1.51e5,95215,inactive
NaCP60E (Na channel protein 60E),DRSC04307,3.79e5,5.03e5,1.14e6,1.82e6,inactive
NaCP60E (Na channel protein 60E),DRSC21351,7.32e5,8.00e5,2.74e6,2.38e6,inactive
NaCP60E (Na channel protein 60E),DRSC26120,2.49e5,3.47e5,5.34e5,5.50e5,inactive
mv (mauve),DRSC08208,39436,49415,6.89e5,8.78e5,inactive
mv (mauve),DRSC08570,56678,59422,9.18e5,8.59e5,inactive
mv (mauve),DRSC28733,3.71e5,3.53e5,7.88e5,7.93e5,inactive
ppk26 (pickpocket 26),DRSC10991,85818,85311,1.13e6,1.22e6,inactive
ppk26 (pickpocket 26),DRSC25876,2.92e5,3.62e5,1.06e6,9.21e5,inactive
CG32195,DRSC09533,2.07e5,1.65e5,3.77e5,3.16e5,inactive
ND-B12 (NADH dehydrogenase (ubiquinone) B12 subunit),DRSC04060,1.55e5,1.22e5,1.19e6,1.02e6,inactive
boi,DRSC18425,2.02e5,3.11e5,4.04e6,3.82e6,inactive
boi,DRSC18598,3.58e5,3.65e5,4.37e6,3.40e6,inactive
boi,DRSC25851,6.40e5,6.48e5,1.16e6,8.63e5,inactive
CG5149,DRSC02819,9.97e5,9.60e5,1.35e6,1.47e6,inactive
CG5149,DRSC27178,2.97e5,3.00e5,6.54e5,7.07e5,inactive
"Pp1-Y2 (Protein phosphatase 1, Y-linked 2)",DRSC21608,1.01e6,1.14e6,4.76e5,7.84e5,inactive
"Pp1-Y2 (Protein phosphatase 1, Y-linked 2)",DRSC39283,,,,,inactive
CG43106,DRSC04279,3.26e5,3.44e5,2.45e6,2.05e6,inactive
Alp1 (Alkaline phosphatase 1),DRSC11781,50815,40565,4.29e5,3.12e5,active
Alp1 (Alkaline phosphatase 1),DRSC36908,,,,,inactive
fzo (fuzzy onions),DRSC16954,1.51e5,2.19e5,2.62e6,2.57e6,inactive
CG2961,DRSC18246,5.05e5,5.39e5,2.97e6,3.25e6,inactive
CG2961,DRSC28539,1.01e6,1.10e6,8.12e5,1.21e6,inactive
Ilp4 (Insulin-like peptide 4),DRSC10701,2.01e5,2.50e5,2.43e6,2.93e6,inactive
Ilp4 (Insulin-like peptide 4),DRSC26585,2.42e5,2.58e5,3.07e5,4.56e5,inactive
DENR (Density regulated protein),DRSC20151,62584,82314,5.08e5,7.74e5,inactive
CG31705,DRSC01991,4.64e5,5.68e5,9.92e5,1.36e6,inactive
CG31705,DRSC30021,6.06e5,3.93e5,8.32e5,9.65e5,inactive
CG9759,DRSC16558,1.04e5,57549,4.66e5,4.00e5,inactive
CG9759,DRSC26341,3.16e5,2.69e5,1.06e6,9.72e5,inactive
CG18649,DRSC10334,2.66e5,1.75e5,2.18e6,1.95e6,inactive
sbr (small bristles),DRSC19770,2.88e5,2.52e5,2.55e6,2.75e6,inactive
sbr (small bristles),DRSC20368,1.42e5,1.15e5,2.06e6,2.19e6,active
sbr (small bristles),DRSC29803,3.01e5,2.10e5,1.10e6,1.09e6,inactive
CG1674,DRSC17142,2.79e5,3.00e5,4.36e6,2.96e6,inactive
CG1674,DRSC29516,2.06e5,3.20e5,7.50e5,7.50e5,inactive
Piezo,DRSC03092,4.80e5,9.44e5,1.24e6,1.27e6,inactive
Piezo,DRSC03391,3.08e5,2.87e5,1.92e6,2.03e6,inactive
robl22E,DRSC00289,93266,1.41e5,7.97e5,8.87e5,inactive
Nmnat (Nicotinamide mononucleotide adenylyltransferase),DRSC14644,1.84e5,1.53e5,2.40e6,2.52e6,inactive
Nmnat (Nicotinamide mononucleotide adenylyltransferase),DRSC26899,5.51e5,5.17e5,6.26e5,5.98e5,inactive
Nrg (Neuroglian),DRSC17573,6.16e5,8.51e5,1.77e6,1.99e6,inactive
Nrg (Neuroglian),DRSC18688,92821,1.12e5,7.91e5,5.13e5,inactive
Nrg (Neuroglian),DRSC27797,2.02e5,2.83e5,3.05e5,7.57e5,inactive
CG5131,DRSC02817,1.44e5,1.78e5,1.99e6,1.74e6,inactive
NimA (Nimrod A),DRSC01353,2.23e5,2.74e5,5.99e5,2.95e5,inactive
NimA (Nimrod A),DRSC22170,7.42e5,5.34e5,2.36e6,2.45e6,inactive
NimA (Nimrod A),DRSC28421,2.13e5,5.62e5,5.61e5,1.22e6,inactive
NimA (Nimrod A),DRSC28852,5.35e5,4.54e5,2.35e6,2.22e6,inactive
"Gmer (GDP-4-keto-6-deoxy-D-mannose 3,5-epimerase/4-reductase)",DRSC04376,5.85e5,7.83e5,9.99e5,1.13e6,inactive
"Gmer (GDP-4-keto-6-deoxy-D-mannose 3,5-epimerase/4-reductase)",DRSC28925,4.68e5,5.57e5,8.79e5,9.74e5,inactive
CG10747,DRSC02104,1.35e5,1.09e5,1.33e6,1.27e6,inactive
EMC5 (ER membrane protein complex subunit 5),DRSC02469,2.41e5,1.82e5,2.06e6,2.44e6,inactive
CG8379,DRSC16414,1.22e5,1.31e5,2.50e6,1.99e6,inactive
Scgalpha (Sarcoglycan alpha),DRSC03076,1.91e5,1.92e5,1.71e6,1.85e6,inactive
Scgalpha (Sarcoglycan alpha),DRSC29625,4.45e5,5.95e5,8.34e5,8.34e5,inactive
CG12826,DRSC06175,3.54e5,3.62e5,1.29e6,1.27e6,inactive
CG32344,DRSC08578,9.14e5,9.22e5,1.88e6,1.36e6,inactive
Wnt6 (Wnt oncogene analog 6),DRSC02795,2.60e5,1.89e5,2.66e6,2.52e6,inactive
Wnt6 (Wnt oncogene analog 6),DRSC26973,5.17e5,2.66e5,9.28e5,3.25e5,inactive
CG13506,DRSC04150,2.42e5,2.19e5,1.85e6,1.76e6,inactive
CG8312,DRSC16406,87773,1.34e5,1.53e6,1.45e6,inactive
path (pathetic),DRSC10361,2.05e5,1.58e5,2.39e6,2.02e6,inactive
CG30423,DRSC04013,1.21e5,93647,2.08e5,1.96e5,inactive
Smurf (SMAD specific E3 ubiquitin protein ligase),DRSC07641,82148,78750,1.29e6,1.29e6,inactive
Smurf (SMAD specific E3 ubiquitin protein ligase),DRSC29832,6.72e5,4.13e5,1.51e6,1.61e6,inactive
cDIP (Common Dpr-interacting protein),DRSC14267,1.12e5,62512,6.07e5,4.66e5,inactive
Cyp311a1 (Cytochrome P450 311a1),DRSC20239,5.55e5,5.09e5,4.04e6,3.70e6,inactive
Cyp311a1 (Cytochrome P450 311a1),DRSC27062,6.30e5,5.04e5,7.57e5,4.83e5,inactive
CG18540,DRSC06767,98584,67280,1.35e6,1.35e6,inactive
CG18540,DRSC26991,3.91e5,3.77e5,5.70e5,5.14e5,inactive

6 of these entries, reformatted:
gene	DRSC id	firefly reporter light, replicate 1	firefly reporter light, replicate 2	Renilla control light, replicate 1	Renilla control light, replicate 2	Outcome
mv (mauve)	DRSC08570	56678	59422	9.18e5	8.59e5	inactive
mv (mauve)	DRSC28733	3.71e5	3.53e5	7.88e5	7.93e5	inactive
ppk26 (pickpocket 26)	DRSC10991	85818	85311	1.13e6	1.22e6	inactive
ppk26 (pickpocket 26)	DRSC25876	2.92e5	3.62e5	1.06e6	9.21e5	inactive
CG32195	DRSC09533	2.07e5	1.65e5	3.77e5	3.16e5	inactive
ND-B12 (NADH dehydrogenase (ubiquinone) B12 subunit)	DRSC04060	1.55e5	1.22e5	1.19e6	1.02e6	inactive
